The text below walks through data of PubChem BioAssay AID330 (DTP/NCI, 2004).

Molecules are shown by their SMILES. The list does not hold the whole screen: it gathers tests that were run many times, whatever their T/C, doses with no T/C, and many T/C values between a quarter and a half above the control. Other doses and runs of a compound stand elsewhere. T/C gives the treated animals as a percentage of the vehicle group. Some entries give survivors of the animals treated and no T/C: the source holds a T/C of zero for them, seemingly a mark for toxic or unscored doses. Some survivor counts are full or nearly so, which does not show that the dose was tolerated: the source hardly ever lists a survival T/C far under the control, and the zero likely stands for such cases as well. Survivors were counted at the toxicity check, usually on the fifth day, unless a day is given; later deaths do not show. Schedules are NCI's codes, read here as Q, the interval in days (D) or hours (H), X, the number of doses. Signs of the kind (2×) stand for listed records that agree. For survival time, the PubChem record calls one and a half times the control and up active, and a quarter to a half above the control has no call in these data; cut-offs in other NCI protocols can differ.

The test system of this test is P388 leukemia ip, CD2F1 mice, survival T/C. In words: NCI In Vivo Anticancer Drug Screen. Data for tumor model P388 Leukemia (intraperitoneal) in CD2F1 (CDF1) mice. The conditions noted are these: T/C endpoint: median survival time, higher T/C = longer survival.
Setting [1] is: dose: 50.0 mg/kg/injection, schedule: Q01DX009 (ip), vehicle: saline with Tween-80.
Where [2] appears, read: dose: 100.0 mg/kg/injection, schedule: Q01DX009 (ip), vehicle: saline with Tween-80.
Where [3] appears, read: dose: 200.0 mg/kg/injection, schedule: Q01DX005 (ip), vehicle: saline.
[4] abbreviates: dose: 200.0 mg/kg/injection, schedule: Q01DX009 (ip), vehicle: saline with Tween-80.
The mark [5] stands for this setting: dose: 200.0 mg/kg/injection, schedule: Q04DX003 (ip), vehicle: saline with Tween-80.
The mark [6] stands for this setting: dose: 400.0 mg/kg/injection, schedule: Q04DX003 (ip), vehicle: saline with Tween-80.
The mark [7] stands for this setting: dose: 50.0 mg/kg/injection, schedule: Q01DX009 (ip), vehicle: Klucel (hydroxypropylcellulose) (HPC).
Setting [8] is: dose: 100.0 mg/kg/injection, schedule: Q01DX009 (ip), vehicle: Klucel (hydroxypropylcellulose) (HPC).
[9] abbreviates: dose: 200.0 mg/kg/injection, schedule: Q01DX009 (ip), vehicle: Klucel (hydroxypropylcellulose) (HPC).
[10] abbreviates: dose: 240.0 mg/kg/injection, schedule: Q01DX005 (ip), vehicle: Klucel (hydroxypropylcellulose) (HPC).

For the compound `N=c1ccn2c(n1)OC1C(O)C(COS(=O)OC3C(CO)OC4C3Oc3nc(=N)ccn34)OC12` (centres undefined), the T/C runs as follows: under setting [1], 131 % of control; under setting [2], 140 % of control.

With `CNC(=O)OCc1c(-c2ccccc2)c(-c2ccccc2)n(C)c1COC(=O)NC`, the T/C (dose: 3.13 mg/kg/injection, schedule: Q01DX009 (ip), vehicle: distilled water + Tween-80) is 128 % of control; the T/C (dose: 6.25 mg/kg/injection, schedule: Q01DX009 (ip), vehicle: distilled water + Tween-80, evaluated on day 30) is 148 % of control; the T/C (dose: 6.25 mg/kg/injection, schedule: Q01DX009 (ip), vehicle: distilled water + Tween-80, evaluated on day 45) is 138 % of control. For the same compound, the survivor count was 5 of 6 (2×) (dose: 100.0 mg/kg/injection, schedule: Q01DX009 (ip), vehicle: distilled water + Tween-80) and 1 of 6 (dose: 200.0 mg/kg/injection, schedule: Q01DX009 (ip), vehicle: distilled water + Tween-80).

On to `COc1ccc2c(=O)cc(-c3ccccc3)[nH]c2c1`, for which the survivor count (dose: 150.0 mg/kg/injection, schedule: Q01DX009 (ip), vehicle: saline) is listed as 4 of 6.

Turning to `CN(C)c1ccc(Sc2ccc3nc(N)nc(N)c3c2)cc1`, the T/C under setting [2] is 128 % of control.

With `CC(C)C(=O)NCCCCCCN1CCCCC1`, the survivor count under setting [3] is 0 of 5.

Consider `COc1cc2cc3c4ccc(OC)c(OC)c4cc[n+]3c(C)c2cc1OC` (tested in a mixture with another compound), for which the survivor count reads like this: under setting [4], 0 of 6; (dose: 400.0 mg/kg/injection, schedule: Q01DX009 (ip), vehicle: saline with Tween-80) 0 of 6.

With `O=C(NCCCN1CC1)C(=O)NCCCN1CC1`, the survivor count (dose: 6.25 mg/kg/injection, schedule: Q01DX009 (ip), vehicle: saline) is listed as 5 of 6.

Turning to `CN(C)c1c([N+](=O)[O-])cc2[nH]cnc2c1[N+](=O)[O-]`, the survivor count by setting is: (dose: 12.5 mg/kg/injection, schedule: Q04DX003 (ip), vehicle: saline with Tween-80) 3 of 6; (dose: 25.0 mg/kg/injection, schedule: Q04DX003 (ip), vehicle: saline with Tween-80) 2 of 6; (dose: 50.0 mg/kg/injection, schedule: Q04DX003 (ip), vehicle: saline with Tween-80) 0 of 6; (dose: 100.0 mg/kg/injection, schedule: Q04DX003 (ip), vehicle: saline with Tween-80) 0 of 6; under setting [5], 0 of 6; under setting [6], 0 of 6.

As for `CCCn1c2ccccc2c2c(C)c3cnccc3c(C)c21`, the T/C (dose: 200.0 mg/kg/injection, schedule: Q04DX002 (ip), vehicle: saline with Tween-80) was 128 % of control.

Consider `CCCCCCCCC(Cn1ccnc1)c1ccc(F)cc1` (centres undefined), for which the survivor count is, setting by setting: under setting [5], 5 of 6; under setting [6], 0 of 6.

`COc1ccc2[nH]c3c(c2c1)CCNC3CC(C)CCC=C(C)C` (centres undefined): the T/C reads like this: under setting [7], 135 % of control; under setting [8], 138 % of control. Also, the survivor count is, setting by setting: under setting [1], 6 of 6; under setting [2], 6 of 6; under setting [9], 1 of 6.

Turning to `CC(C)=CC(=O)OC1C2C(C)=CC(O)C(O)C2(C)C2C3(O)OCC24C(CC(=O)OC14)C(C)C3O` (centres undefined), the T/C was 126 % of control (dose: 0.25 mg/kg/injection, schedule: Q01DX005 (ip), vehicle: distilled water + Tween-80); 142 % of control (dose: 0.38 mg/kg/injection, schedule: Q01DX009 (ip), vehicle: saline with Tween-80); 135 % of control (dose: 0.5 mg/kg/injection, schedule: Q01DX005 (ip), vehicle: distilled water + Tween-80); 141 % of control (dose: 0.62 mg/kg/injection, schedule: Q01DX005 (ip), vehicle: distilled water + Tween-80); 140 % of control (dose: 1.25 mg/kg/injection, schedule: Q01DX005 (ip), vehicle: distilled water + Tween-80); 133 % of control (dose: 1.5 mg/kg/injection, schedule: Q01DX009 (ip), vehicle: saline with Tween-80). Further, the T/C is, setting by setting: (dose: 2.5 mg/kg/injection, schedule: Q01DX005 (ip), vehicle: distilled water + Tween-80) 148 % of control; (dose: 3.0 mg/kg/injection, schedule: Q01DX009 (ip), vehicle: saline with Tween-80) 133 % of control. For the same compound, the survivor count (dose: 10.0 mg/kg/injection, schedule: Q01DX005 (ip), vehicle: distilled water + Tween-80) is 4 of 5.

Turning to `O=NN(CCF)C(=O)NC1CCS(=O)(=O)CC1`, the survivor count (dose: 20.0 mg/kg/injection, schedule: Q04DX003 (ip), vehicle: saline with Tween-80) is on record as 5 of 6.

Take `CC(=O)Nc1ccc2c(Nc3ccc(NS(C)(=O)=O)cc3)c3ccccc3nc2c1`: the T/C is, setting by setting: (dose: 0.29 mg/kg/injection, schedule: Q04DX003 (ip), vehicle: saline) 149 % of control; (dose: 0.44 mg/kg/injection, schedule: Q04DX003 (ip), vehicle: saline) 144 % of control; (dose: 0.66 mg/kg/injection, schedule: Q04DX003 (ip), vehicle: saline) 146 % of control.

Consider `C/C(=N\OCC(O)CNCCNC(=O)C(C)C)c1ccc(N(C)C)cc1` (centres undefined), for which, under setting [10], the survivor count is given as 0 of 6.

Take `COc1cc2c(cc1OC)/C(=N/N=C1\CCCc3cc(OC)c(OC)cc31)CCC2`: the survivor count (dose: 50.0 mg/kg/injection, schedule: Q01DX009 (ip), vehicle: water) is recorded as 6 of 6.

Turning to `CN(C)CCCNc1ccc2ccc3c(NCCCN(C)C)ccc4ccc1c2c43`, the survivor count under setting [9] is 0 of 6.

As to `N/C(=N\Cl)C(Cl)(Cl)Cl`, the T/C by setting is: (dose: 18.7 mg/kg/injection, schedule: Q01DX009 (ip), vehicle: saline) 130 % of control; (dose: 37.5 mg/kg/injection, schedule: Q01DX009 (ip), vehicle: saline) 135 % of control. Besides, the survivor count was 3 of 6 (dose: 56.3 mg/kg/injection, schedule: Q01DX009 (ip), vehicle: saline) and 1 of 6 (dose: 75.0 mg/kg/injection, schedule: Q01DX009 (ip), vehicle: saline).

Take `Cc1cc(NCCN(C(C)C)C(C)C)nc(Nc2nc3cc(Cl)c(Cl)cc3[nH]2)n1`: the survivor count (dose: 25.0 mg/kg/injection, schedule: Q01DX009 (ip), vehicle: saline sonified) is given as 4 of 6.

For the compound `C=CCSc1ncnc2nc[nH]c12`, the survivor count is 3 of 6 under setting [4] and 0 of 6 under setting [6].

`CCC(CC)NCCNc1cc(OC)cc2cccnc12`: the survivor count (dose: 100.0 mg/kg/injection, schedule: Q01DX005 (ip), vehicle: saline) is given as 0 of 6 and the survivor count under setting [3] is given as 0 of 6.

Regarding `CCOC(=O)Nc1cc2c(c(N)n1)N=C(c1ccc3ccccc3c1)CN2`, the T/C (dose: 3.7 mg/kg/injection, schedule: Q01DX005 (ip), vehicle: saline with Tween-80) was 136 % of control. Also, under “dose: 15.0 mg/kg/injection, schedule: Q01DX005 (ip), vehicle: saline with Tween-80”, the survivor count is 4 of 5.

`O=C1Nc2ccccc2C1(N1CCCCC1)N1CCCCC1`: under setting [2], the survivor count is 6 of 6.

Consider `CSc1cnnc2ccccc12`, for which the T/C under setting [7] is 128 % of control. Besides, the survivor count was 3 of 6 under setting [8] and 0 of 6 under setting [9].

In the case of `CN(CCC[NH-])CCC[NH-].[Cl][Pd][Cl]`, the survivor count was 3 of 6 (dose: 100.0 mg/kg/injection, schedule: Q04DX002 (ip), vehicle: saline); 0 of 6 (dose: 200.0 mg/kg/injection, schedule: Q04DX002 (ip), vehicle: saline); 0 of 6 (dose: 400.0 mg/kg/injection, schedule: Q04DX002 (ip), vehicle: saline).

With `Cc1c2c(=O)oc3ccc(Cl)cc3c2nn1-c1ccccc1`, the survivor count under setting [10] was 0 of 6.

In the case of `C=[CH][Pb]([CH]=C)([CH]=C)[O]C(C)=O`, the T/C (dose: 2.5 mg/kg/injection, schedule: Q01DX009 (ip), vehicle: saline with Tween-80) was 125 % of control. For the same compound, where the note is “dose: 10.0 mg/kg/injection, schedule: Q01DX009 (ip), vehicle: saline with Tween-80”, the survivor count is given as 6 of 6.
